# Experimental data: PubChem BioAssay AID504467 (National Center for Advancing Translational Sciences (NCATS), 2011)
# Out of some 330,000 compounds screened, about 7,700 (2.3%) were called active. Inconclusive results, whose numbers are uncertain, are shown with a selection of clear calls. Calls follow the shape of the dose curve; as a rule, active = well fitted inhibition curve with a large enough effect; inconclusive = small, poorly fitted or top-dose-only effect, or effect the other way; inactive = flat fitted curve, though single readings scatter. Potencies beside an inconclusive call are fits to weak or partial responses and may not hold up.
# Assay: qHTS screen for small molecules that inhibit ELG1-dependent DNA repair in human embryonic kidney (HEK293T) cells expressing luciferase-tagged ELG1; also: nearly all actives have a fitted effect of over 55% in size
# Details: HEK293T ELG1-luciferase reporter, luminescence, 16 h, DNA damage induced by 5-fluorouridine; activity change, negative = inhibition: at 46.1 µM (top of the series)
# Summary of the method: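 HEK293T cells expressing luciferase-tagged ELG1 (2,000/well) received 5-Fluorouridine plus compound or DMSO for 16 hr at 37 °C. Luciferase was read by ONE-Glo luminescence after 30 min at room temperature.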
# % is scaled to controls: 0 for no effect and ±100 for the full control effect; potency is read from the fitted curve at half-maximal effect.
Compound,Potency,"activity change, negative = inhibition"
COc1ccc(NC(=O)CN2CCN(Cc3ccc4c(c3)OCO4)CC2)cc1OC,"inconclusive: 23.1 µM [inhibitor, single point]",–
CCNC(=O)C(=O)Nc1cc2c3c(c1)CCC(=O)N3CCC2,"inconclusive: 18.3 µM [activator, single point]",–
COc1ccccc1C(=O)Nc1ccc(N2CCN(Cc3ccccc3)CC2)cc1,"inconclusive: 18.4 µM [inhibitor, single point]",–
O=C(CCSc1ccc(Cl)cc1)N1CCCCCC1,"inconclusive: 20.6 µM [activator, partial curve]",–
COc1ccc(NC(=O)Nc2nnc(C(C)C)s2)cc1,"inconclusive: 20.6 µM [activator, partial curve]",–
COC(=O)c1sc(NC(=O)Cc2cccs2)nc1C,"inconclusive: 16.4 µM [activator, partial curve, poor fit]",–
COc1ccc(C(=O)OCCN2CCOCC2)cc1,"inconclusive: 20.6 µM [activator, single point]",–
COc1ccc(Cl)cc1NC(=O)C1COc2ccccc2O1 (stereo not given),"inconclusive: 25.9 µM [activator, single point]",–
O=C(OCC(=O)N1CCN(S(=O)(=O)c2ccccc2)CC1)C1CCC1,"inconclusive: 4.61 µM [activator, partial curve, poor fit]",–
C/C=C(\C)C(=O)O[C@H](c1cc2ccc(=O)oc2cc1OC)[C@@H](O)C(C)(C)O,"inconclusive: 14.6 µM [activator, partial curve, poor fit]",–
CCCc1nc2sc3c(=O)n(N)cnc3c2c2c1CCCC2,–,inactive: -0.404%
NC(=O)C1CCN(C(=O)COc2ccc3c4c(c(=O)oc3c2)CCC4)CC1,"inconclusive: 1.64 µM [activator, partial curve, poor fit]",–
O=C(CCNC(=O)N1CCn2c1nc1ccccc12)NCc1ccc(Cl)cc1,"inconclusive: 25.9 µM [inhibitor, single point]",–
CCOCCCN1CN(Cc2ccco2)CNC1=S,"inconclusive: 25.9 µM [activator, partial curve, poor fit]",–
COc1ccc(C(=O)c2ccc(OC)c(OC)c2)cc1,"inconclusive: 20.6 µM [activator, partial curve, poor fit]",–
Cc1ccc(NC(=O)CN(C)C(=O)c2ccc(Cl)c([N+](=O)[O-])c2)cc1,"inconclusive: 20.6 µM [activator, partial curve, poor fit]",–
CCOC(=O)C1=C(c2ccccc2)c2ccccc2N(S(=O)(=O)C(F)(F)F)C1C(=O)OCC (stereo not given),active: 16.4 µM,–
O=C(NCc1ccc(Cl)cc1)C(=O)NCC1CCCN1S(=O)(=O)c1cccs1 (stereo not given),"inconclusive: 23.1 µM [inhibitor, single point]",–
O=C(NCc1ccc(F)cc1)C1CCN(c2cnccn2)CC1,–,inactive: 13.1%
N#Cc1ccccc1NC(=O)Nc1ccc(Cl)cc1,"inconclusive: 23.1 µM [activator, partial curve]",–
CC(C)CSc1nc(N2CCOCC2)c2c(c1C#N)CC(C)(C)SC2,"inconclusive: 29.1 µM [inhibitor, single point]",–
Cc1ccccc1NC(=O)COC(=O)c1c(-c2ccccc2)noc1C,"inconclusive: 22.4 µM [inhibitor, single point]",–

# Whole records, looked up by structure. Order of values: Potency | activity change, negative = inhibition
# CCNC(=O)C(=O)Nc1cc2c3c(c1)CCC(=O)N3CCC2 in the list: inconclusive: 18.3 µM [activator, single point] | –
# O=C(CCSc1ccc(Cl)cc1)N1CCCCCC1 in the list: inconclusive: 20.6 µM [activator, partial curve] | –
# O=C(NCc1ccc(F)cc1)C1CCN(c2cnccn2)CC1 in the list: – | inactive: 13.1%

# Fetched by compound from above (2):
Compound,Potency,"activity change, negative = inhibition"
Cc1ccc(NC(=O)CN(C)C(=O)c2ccc(Cl)c([N+](=O)[O-])c2)cc1,"inconclusive: 20.6 µM [activator, partial curve, poor fit]",–
COc1ccccc1C(=O)Nc1ccc(N2CCN(Cc3ccccc3)CC2)cc1,"inconclusive: 18.4 µM [inhibitor, single point]",–

# Continued.

Compound,Potency,"activity change, negative = inhibition"
O=C(C[C@H]1C[C@H](C(=O)N2CCCCC2)[C@@]2(CCc3ccccc3)c3[nH]c4cc(-c5ccco5)ccc4c3CCN2C1=O)NCCN1CCOCC1,–,inactive: -17.2%
Cc1cc(CN(C)C(=O)CC2C(=O)NCCN2Cc2ccc(-c3ccccc3)cc2)on1 (stereo not given),–,inactive: 1%
CCCC(O)(c1ccc(OC)cc1)C(CN1CCOCC1)c1ccccc1 (stereo not given),"inconclusive: 8.2 µM [inhibitor, partial curve, poor fit]",–
Cc1ccc(CSc2nnc(SCC(=O)N/N=C/c3c[nH]c4ccccc34)s2)cc1,"inconclusive: 18.3 µM [activator, single point]",–
CC(=O)Nc1cccc(-c2csc(Nc3ccccn3)n2)c1,"inconclusive: 2.31 µM [activator, partial curve]",–
Oc1ccc(C2=NN(c3ccccc3)C(c3ccc(F)cc3)C2)cc1 (stereo not given),–,inactive: -8.26%
CC(C)[C@H](NC(=O)c1cc2cc(Cl)ccc2n1C)C(=O)N1CCC(C(=O)O)CC1,"inconclusive: 10.3 µM [activator, partial curve]",–
COc1cc(C(C)=O)ccc1COc1ccc(C(=O)OCC(=O)NC(C)(C)C)cc1OC,"inconclusive: 32.6 µM [inhibitor, single point]",–
Cc1cc(C(=O)NNS(=O)(=O)c2cc(C(=O)O)ccc2Cl)c(C)n1-c1ccccc1,"inconclusive: 35.5 µM [activator, single point]",–
O=C(Nc1ccccc1)OCCCc1ccccc1,"inconclusive: 14.6 µM [activator, partial curve]",–
CC(C)(C)c1ccc(OCCC(=O)Nc2cccc(S(=O)(=O)N3CCOCC3)c2)cc1,–,inactive: 0.735%
COc1cc(NC(=S)Nc2ccc(Br)cc2Cl)c(OC)cc1Cl,"inconclusive: 23.1 µM [inhibitor, single point]",–
Cc1sc(NC(=O)c2ccccc2)c(C#N)c1-c1ccccc1,"inconclusive: 2.59 µM [activator, partial curve]",–
COc1ccccc1NC(=O)c1cc(C)nc2ccccc12,–,inactive: -11.8%
CCOc1ccc(NC(=O)CN(c2ccc(OC)cc2)S(C)(=O)=O)cc1,"inconclusive: 18.4 µM [activator, partial curve]",–
CCOc1cccc(-c2nn3c(-c4ccco4)nnc3s2)c1,"inconclusive: 14.6 µM [activator, single point]",–
CCc1nccn1S(=O)(=O)c1ccc(OC)c(C)c1C,"inconclusive: 20.6 µM [activator, partial curve, poor fit]",–
CCOC(=O)c1ccc(Oc2c(C)oc3cc(OS(C)(=O)=O)ccc3c2=O)cc1,"inconclusive: 25.9 µM [inhibitor, single point]",–
CCOC(=O)[C@@H]1[C@H]2COc3ccccc3[C@@H]2N2C(=O)N(c3ccc(Cl)cc3)C(=O)[C@@]12C,–,inactive: -3.9%
C(=N\Nc1nc(-c2ccccn2)nc2ccccc12)/c1ccccc1,"inconclusive: 4.11 µM [inhibitor, single point]",–
Clc1ccc(C2=NNC(=NCc3ccccc3)SC2)cc1,"inconclusive: 29.1 µM [activator, single point]",–
CC(C)OCCCNC(=O)CN1C(=O)/C(=C/c2ccccc2)Sc2ccccc21,"inconclusive: 6.51 µM [inhibitor, partial curve, poor fit]",–

Compound,Potency,"activity change, negative = inhibition"
CCOC(=O)NC(=O)c1cn(CCN(C)C)c(=O)[nH]c1=O,–,inactive: 5.25%
O=C(Nc1cccc(F)c1)C1CCN(S(=O)(=O)c2cccc3nonc23)CC1,"inconclusive: 29.1 µM [inhibitor, single point]",–
CC1=C(C#N)C2C(/C1=N/O)C2(C)C (stereo not given),"inconclusive: 29.1 µM [inhibitor, single point]",–
CCc1nccn1C(=O)c1cnn2c(C(F)F)cc(-c3ccc(C)cc3)nc12,"inconclusive: 25.9 µM [inhibitor, partial curve, poor fit]",–
COc1ccc(/C=N/n2cnnc2SCCO)cc1OC,"inconclusive: 23.1 µM [activator, single point]",–
CC(C)(C)c1ccc(Cn2ccc(-c3ccc4c(c3)OCO4)n2)cc1,"inconclusive: 22.4 µM [activator, single point]",–
O=C1/C(=C/N(C(=O)c2ccco2)c2ccc(Br)cc2)Sc2ccccc21,"inconclusive: 10.3 µM [activator, partial curve]",–
NC(=O)CC1C(=O)N(c2ccccc2)C(=S)N1NC(=O)c1ccc(Br)cc1 (stereo not given),"inconclusive: 18.3 µM [activator, single point]",–
C=CCn1c(SCC(=O)NCC2CCCO2)nc2c([nH]c3ccccc32)c1=O (stereo not given),active: 4.11 µM,–
CN1CCN(S(=O)(=O)c2ccc(NC(=S)NC(=O)c3ccc(Cl)cc3)cc2)CC1,"inconclusive: 29.1 µM [inhibitor, single point]",–
Cc1cc(C)cc(C(=O)NC2C(=O)N3C(C(=O)O)=C(CSc4nnc(C)s4)CSC23)c1 (stereo not given),"inconclusive: 7.3 µM [activator, partial curve, poor fit]",–
C=CCN1C(=O)/C(=C2/Sc3ccccc3N2C)SC1=Nc1c(C)n[nH]c1C,"inconclusive: 6.51 µM [inhibitor, single point]",–
CCOC(=O)c1sc(=NC(=O)c2cccs2)n(C)c1C,"inconclusive: 1.83 µM [activator, full curve]",–
Cc1cccc(C(=O)NC(=S)NNC(=O)c2cccs2)c1,active: 20.6 µM,–
COc1cc(C2=NOC(C(=O)NCc3ccco3)C2)cc(OC)c1OC (stereo not given),–,inactive: 3.59%
Cc1cc(C(=O)COc2ccccc2C(N)=O)c(C)n1CC1CCCO1 (stereo not given),"inconclusive: 1.3 µM [inhibitor, partial curve]",–
Cn1cc(NC(=O)OCc2ccc(Cl)cc2)c(C(F)(F)F)n1,"inconclusive: 29.1 µM [inhibitor, single point]",–
CO/N=C1\CCCc2c(C(=O)NN)sc(SC)c21,"inconclusive: 25.9 µM [inhibitor, partial curve, poor fit]",–
CN(c1ccc(C(=O)COC(=O)C2CC2)cc1)S(C)(=O)=O,"inconclusive: 16.4 µM [activator, partial curve]",–
O=C(CN(c1ccc2c(c1)OCCO2)S(=O)(=O)c1ccccc1)NCc1ccc(Cl)cc1,active: 25.9 µM,–
O=C(COC(=O)c1cnccn1)Nc1ccc(Cl)cc1C(F)(F)F,"inconclusive: 0.651 µM [inhibitor, single point]",–
